# Data as given in the supplement of paper PMC8256030.
# Where “and” joins values, the source holds several entries; their conditions need not be identical. Equal entries are not always repeated. This is one part of the list. Repeats in this data set agree poorly, so a single value says little.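 HEK293T cells were given each compound shortly before transfection with a reporter in which red mCherry is followed by the SARS-CoV-2 frameshift element and then GFP in the −1 frame, so GFP appears only after frameshifting.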
# Legend:
# HEK293T = experiment: percent viability (nuclei count) relative to control; higher = more viable cells; conditions: 10 µM; 24 h
# [1] = test system: SARS-CoV-2 -1 PRF reporter mCherry-FSE-GFP(-1); experiment: percent effect, decrease of GFP/mCherry ratio (-1 PRF reporter) relative to controls; higher = stronger frameshift inhibition; conditions: 10 µM; 24 h; HEK293T
# [2] = test system: SARS-CoV-2 -1 PRF reporter mCherry-FSE-GFP(-1); experiment: mCherry (red) intensity as percent of control; higher = higher upstream reporter expression; conditions: 10 µM; 24 h; HEK293T
SMILES,percent viability (HEK293T),percent effect [1],mCherry [2]
O=c1[nH]c2ccccc2n1CCCN1CCC(n2c(=O)[nH]c3cc(Cl)ccc32)CC1 [domperidone],332% and 328%,-2.76% and -1.77%,
O=C(O[C@H]1C[C@H]2CC[C@@H](C1)[N+]21CCCC1)C(O)(c1ccccc1)c1ccccc1 [trospium chloride],121%,-0.915%,125%
CCC1(c2ccc(N)cc2)CCC(=O)NC1=O (centres undefined) [aminoglutethimide],182% and 317%,-1.51% and -5.85%,
NCCCNCCSP(=O)(O)O [amifostine],214% and 304%,-1.06% and -6.5%,
COc1ccc(CCN2CCC(Nc3nc4ccccc4n3Cc3ccc(F)cc3)CC2)cc1 [astemizole],548% and 344%,-2.92% and -7.14%,
O=C(Nc1cc(Cl)cc(Cl)c1O)c1c(O)c(Cl)cc(Cl)c1Cl [oxyclozanide],,,116%
"CC(=O)[C@H]1CC[C@H]2[C@@H]3CC[C@H]4C[C@H](O)CC[C@]4(C)[C@H]3C(=O)C[C@]12C [5A-Pregnan-3A-ol-11,20-dione]",150%,-1.76%,108%
C=C(C)[C@H]1CN[C@H](C(=O)O)[C@H]1CC(=O)O [kainic acid],127%,-2.73%,87.3%
COC1=CC(=O)C[C@@H](C)[C@]12Oc1c(Cl)c(OC)cc(OC)c1C2=O,,,105%
CC(C)CC(N(C)C)C1(c2ccc(Cl)cc2)CCC1 (centres undefined) [sibutramine],307% and 164%,-3.47% and -1.36%,
C/C=C/c1ccc(OC)cc1,,,117%
COc1ccc(C(CN(C)C)C2(O)CCCCC2)cc1 (centres undefined) [venlafaxine],274% and 194%,0.0345% and -1.82%,
O=C1CN=C(c2ccccc2Cl)c2cc(Cl)ccc2N1 [delorazepam],81.5%,-0.563%,119%
CC(C(=O)c1ccccc1)N(C)C (centres undefined) [metamfepramone],166%,-6.67%,95.4%
N[C@@H](Cc1ccc(O)c(O)c1)C(=O)O [levodopa],,,92.4% and 114%
CC[C@@H](CO)NC(=O)[C@@H]1C=C2c3cccc4c3c(cn4C)C[C@H]2N(C)C1,329%,0.211%,99.1%
COc1cc([C@@H]2c3cc4c(cc3[C@@H](O[C@@H]3O[C@@H]5CO[C@@H](C)O[C@H]5[C@H](O)[C@H]3O)[C@H]3COC(=O)[C@H]23)OCO4)cc(OC)c1O [etoposide],,,22.1%
CC[C@H](C)C(=O)O[C@H]1C[C@H](O)C=C2C=C[C@H](C)[C@H](CC[C@@H]3C[C@@H](O)CC(=O)O3)[C@H]21 [Pravastatin Lactone],,,90.4%
Cc1ccc(/C(=C\CN2CCCC2)c2ccccn2)cc1 [triprolidine],,,101% and 89.7%
CC(C)(C)NCC(O)c1ccccc1Cl (centres undefined) [tulobuterol],380% and 210%,-1.05% and -2.55%,
Cn1c(=O)c2c(ncn2C)n(C)c1=O [Caffeine],,,76.6%
COc1ccc2c(c1)[C@]13CCCC[C@@H]1[C@H](C2)N(C)CC3 [dextromethorphan],242% and 159% and 208%,-4.46% and -1.01% and -1.27%,
CC(=O)O[C@H]1C[C@@H]2CC[C@@H]3[C@H](CC[C@@]4(C)[C@H]3C[C@H]([N+]3(C)CCCCC3)[C@@H]4OC(C)=O)[C@@]2(C)C[C@@H]1[N+]1(C)CCCCC1 [pancuronium bromide],261% and 205%,0.613% and 2.28%,
CN1C(C(=O)Nc2ccccn2)=C(O)c2sccc2S1(=O)=O,,,126%
CC(O)(CS(=O)(=O)c1ccc(F)cc1)C(=O)Nc1ccc(C#N)c(C(F)(F)F)c1 (centres undefined) [bicalutamide],226% and 146%,0.671% and -15.3%,
CC(C)c1cccc(C(C)C)c1O [propofol],216% and 214%,-3.79% and 0.00445%,
CN(C)CCCN1c2ccccc2Sc2ccc(C(F)(F)F)cc21 [triflupromazine],,,125%
C=CCN1CC[C@]23c4c5ccc(O)c4O[C@H]2C(=O)CC[C@@]3(O)[C@H]1C5 [naloxone],328% and 251%,-2.88% and -6.7%,
Nc1ccc2cc3ccc(N)cc3nc2c1 [proflavine],,,65.2%
CC1(C)[C@H](C(=O)O)N2C(=O)C[C@H]2S1(=O)=O [Sulbactam],,,66.2%

# Retrieved by structure from above:
SMILES,percent viability (HEK293T),percent effect [1],mCherry [2]
CN(C)CCCN1c2ccccc2Sc2ccc(C(F)(F)F)cc21 [triflupromazine],,,125%
CC1(C)[C@H](C(=O)O)N2C(=O)C[C@H]2S1(=O)=O [Sulbactam],,,66.2%
